B1: Occludin (protein, UniProt Q28269 1-521)
chain: MSSRPFESPPPYRPDEFKPNHYAPSNDVYGGDMHVRPMLSQPAYSFYPEDEILHFYKWTSPPGVIRILSMLVIVMCIAIFGCVASTLAWDRGYGTGLMGGSIGYPYGSGFGSYGTGYGYGFGYGYGYGGYTDPRAAKGFLLAMVAFCFIAALVIFVTSVIRSDISRTRRYYLTVIILSAFLGVMMFIATIVYIMGVNPTAQASGSLYSSQIYAMCNQFYASTATGLYMDQYLYHYCVVDPQEAIAIVLGFMVIVAFALIIFFAVKTRRKMDRYDKSNILWDKEHIYDEQPPNVEEWVKNVSAGTQDMPPPPSDYVERVDSPMAYSSNGKVNDKRLYPESSYKSTPVPEVVQELPATSPADDFRQPRYSSSGHLEPPSKRAPSKGRTGRPKRLEQDHYETDYTTGGESCDELEEDWIREYPPITSDQQRQLYKRNFDTGLQEYKSLQAELDEINKELSRLDKELDDYREESEEYMAAADEYNRLKQVKGSPDYKNKRNYCKQLKSKLSHIKKMVGDYDRQKT
B2: Crumbs3 (protein, UniProt A0A5F4BST2 27-123)
chain: QTLDPHVNENGTITPSAPGSGSNGALSQEAITAIIVVFSLLAAVLLAVGLVLLLRKLREKRQTQGTYRPSSEEQFNHAAEARAPQDSKETVRGCLPI
B3: ZO-2 (protein, UniProt Q95168 1-1174)
chain: MEELIWEQYTVTLQKDSKRGFGIAVSGGRDNPHFENGETSIVISDVLPGGPADGLLQENDRVVMVNGTPMEDVLHSFAVQQLRKSGKIAAIVVKRPRKVQLAPPQGSLPVDEDDRAFEVMDEFDGRSARSGYSERSRRSSHGGRSRSWEDSPERGRPHERAWSQERERSRGRSLERGLDHDDDYRRPRERSRGRSLERGLDHDDDYGRPGERSHGMSTDRGYDRGYDRGYDRGYDRTYSPEAEYGRRTQPDARHAGSRSRSREHLRSRSPSPELRGRPDHAGQPDSDRPIGVLLMKSKANEEYGLRLGSQIFIKQMTRTALATKDGNLHEGDIILKINGTVTENMSLTDARKLIEKSRGKLQLVVLRDSKQTLINIPSLNDSDSEIEDISEIESNRSFSPEERRQQYSDYDYHSSNEKLKERPNSREDMQNRWSRMGATPTPFKSMGDIASVVGTENSKEPRYQEEPPAPQPKAAPRTFLRPSPEDEAIYGPNTKMVRFKKGDSVGLRLAGGNDVGIFVAGIQEGTSAEQEGLQEGDQILKVNTQDFRGLVREDAVLYLLEIPKGEMVTILAQSRADVYRDILACGRGDSFFIRSHFECEKETPQSLAFSRGEVFRVVDTLYDGKLGHWLAVRIGNELEKGLIPNKSRAEQMASVQNAQRDNAGDRADFWRMRGQRSGMKKNLRKSREDLTAAVSVSTKFPAYERVLLREAGFKRPVVLFGPIADIALEKLANELPDLFQTAKTEPKDAGSEKSSGVVRLNTVRQIIEQDKHALLDVTPKAVDLLNYTQWFPIVIFFNPDSRQGVKTMRQRLNPTSNKSSRKLYDQANKLKKTCAHLFTATINLNSANDSWFGSLKDTIQHQQGEAVWVSEGKMEGMDDDPEDRMSYLTAMGADYLSCDSRLISDFEDTDGEGGAYTDNELDEPAEEPLVSSITRSSEPVQHEESIRKPSPEPRAQMRRAASRDQLRDSSPPPAFKPEPPKAKTQNREESFDISRSHDYKSNPSAVAGNEVSGASTRSCPPPIAAKPSFGRSILKPSTPVPSPESEEVGEGSEEQEGAPKSVLGKVKIFEKMDHKARLQRMQELQEAQNARIEIAQKHPDIYAVPIKTHKPDPGLSQHTSSRPPEPQKGPSRLYQDPRGSYGSDAEEEEYRQQLSEHSKRGYYSQPSRYRDTEL

By UniProt entry, the sequences of proteins in these tests, tags left out.
UniProt E2QYC9: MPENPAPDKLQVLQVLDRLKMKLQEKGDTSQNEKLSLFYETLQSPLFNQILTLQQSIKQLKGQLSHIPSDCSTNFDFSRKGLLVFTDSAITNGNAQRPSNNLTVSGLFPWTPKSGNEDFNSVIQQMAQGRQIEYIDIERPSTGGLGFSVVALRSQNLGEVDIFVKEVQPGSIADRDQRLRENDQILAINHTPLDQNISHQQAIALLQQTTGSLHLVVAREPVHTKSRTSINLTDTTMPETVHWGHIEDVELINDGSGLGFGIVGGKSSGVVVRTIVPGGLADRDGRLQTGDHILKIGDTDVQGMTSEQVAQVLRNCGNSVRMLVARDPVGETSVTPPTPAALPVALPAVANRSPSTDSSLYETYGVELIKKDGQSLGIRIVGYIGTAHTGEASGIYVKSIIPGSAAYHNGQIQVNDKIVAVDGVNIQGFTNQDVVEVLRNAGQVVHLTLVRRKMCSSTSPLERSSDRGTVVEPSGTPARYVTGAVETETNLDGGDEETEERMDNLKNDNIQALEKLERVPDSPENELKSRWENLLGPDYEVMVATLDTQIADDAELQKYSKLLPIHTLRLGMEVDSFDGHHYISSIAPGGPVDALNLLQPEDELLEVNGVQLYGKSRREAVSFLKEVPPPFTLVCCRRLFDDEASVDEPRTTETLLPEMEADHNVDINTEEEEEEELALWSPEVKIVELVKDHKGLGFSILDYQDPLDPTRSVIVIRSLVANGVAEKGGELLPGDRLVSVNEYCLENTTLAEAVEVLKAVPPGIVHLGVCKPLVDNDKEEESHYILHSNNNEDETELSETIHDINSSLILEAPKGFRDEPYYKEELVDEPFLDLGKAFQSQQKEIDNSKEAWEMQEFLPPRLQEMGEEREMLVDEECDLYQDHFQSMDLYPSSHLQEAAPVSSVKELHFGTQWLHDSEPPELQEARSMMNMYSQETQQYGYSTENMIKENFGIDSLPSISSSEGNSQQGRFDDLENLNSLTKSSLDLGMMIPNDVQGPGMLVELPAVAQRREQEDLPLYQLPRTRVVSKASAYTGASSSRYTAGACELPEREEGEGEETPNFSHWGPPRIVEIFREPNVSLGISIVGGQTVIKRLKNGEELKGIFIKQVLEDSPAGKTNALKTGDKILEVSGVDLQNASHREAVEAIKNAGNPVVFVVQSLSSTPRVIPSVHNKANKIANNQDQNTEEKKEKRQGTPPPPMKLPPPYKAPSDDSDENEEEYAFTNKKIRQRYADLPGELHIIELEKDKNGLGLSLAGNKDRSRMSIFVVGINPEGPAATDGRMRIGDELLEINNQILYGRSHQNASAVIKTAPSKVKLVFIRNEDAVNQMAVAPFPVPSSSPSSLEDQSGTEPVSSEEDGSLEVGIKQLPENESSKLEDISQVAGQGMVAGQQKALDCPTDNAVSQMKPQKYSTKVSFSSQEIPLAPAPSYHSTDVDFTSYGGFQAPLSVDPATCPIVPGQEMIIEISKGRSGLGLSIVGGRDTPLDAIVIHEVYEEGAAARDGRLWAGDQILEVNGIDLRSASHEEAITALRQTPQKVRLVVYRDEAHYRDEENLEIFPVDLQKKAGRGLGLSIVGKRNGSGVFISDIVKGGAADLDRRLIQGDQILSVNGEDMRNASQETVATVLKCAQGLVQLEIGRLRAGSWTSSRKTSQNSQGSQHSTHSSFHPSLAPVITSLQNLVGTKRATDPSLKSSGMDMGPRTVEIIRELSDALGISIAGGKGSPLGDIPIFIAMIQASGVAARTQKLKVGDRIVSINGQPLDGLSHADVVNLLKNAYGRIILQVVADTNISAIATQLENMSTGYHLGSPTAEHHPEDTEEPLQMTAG
UniProt A0A8I3PSX6: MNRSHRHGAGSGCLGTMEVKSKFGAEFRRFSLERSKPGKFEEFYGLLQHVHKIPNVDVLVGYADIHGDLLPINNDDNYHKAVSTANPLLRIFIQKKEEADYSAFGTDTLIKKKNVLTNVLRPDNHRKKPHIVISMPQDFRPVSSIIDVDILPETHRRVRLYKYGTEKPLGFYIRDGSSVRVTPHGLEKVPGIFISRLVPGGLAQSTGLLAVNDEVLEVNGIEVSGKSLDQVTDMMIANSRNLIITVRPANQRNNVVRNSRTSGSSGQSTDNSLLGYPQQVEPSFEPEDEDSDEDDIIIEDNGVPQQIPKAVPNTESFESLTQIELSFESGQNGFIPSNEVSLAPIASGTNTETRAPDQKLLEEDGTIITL

Experimental findings from doi:10.1101/710202 are described below.

No constants are given. Whether binding was seen depends on the method and setting. Binding seen in cells or lysates may run through a third protein. Some binding calls cover weakened binding; strength is not graded here. Sequences can lack the tags named with a protein.

The target of the test is T1, Pals1-APEX2-EGFP (UniProt Q8N3R9).
T1 sequence: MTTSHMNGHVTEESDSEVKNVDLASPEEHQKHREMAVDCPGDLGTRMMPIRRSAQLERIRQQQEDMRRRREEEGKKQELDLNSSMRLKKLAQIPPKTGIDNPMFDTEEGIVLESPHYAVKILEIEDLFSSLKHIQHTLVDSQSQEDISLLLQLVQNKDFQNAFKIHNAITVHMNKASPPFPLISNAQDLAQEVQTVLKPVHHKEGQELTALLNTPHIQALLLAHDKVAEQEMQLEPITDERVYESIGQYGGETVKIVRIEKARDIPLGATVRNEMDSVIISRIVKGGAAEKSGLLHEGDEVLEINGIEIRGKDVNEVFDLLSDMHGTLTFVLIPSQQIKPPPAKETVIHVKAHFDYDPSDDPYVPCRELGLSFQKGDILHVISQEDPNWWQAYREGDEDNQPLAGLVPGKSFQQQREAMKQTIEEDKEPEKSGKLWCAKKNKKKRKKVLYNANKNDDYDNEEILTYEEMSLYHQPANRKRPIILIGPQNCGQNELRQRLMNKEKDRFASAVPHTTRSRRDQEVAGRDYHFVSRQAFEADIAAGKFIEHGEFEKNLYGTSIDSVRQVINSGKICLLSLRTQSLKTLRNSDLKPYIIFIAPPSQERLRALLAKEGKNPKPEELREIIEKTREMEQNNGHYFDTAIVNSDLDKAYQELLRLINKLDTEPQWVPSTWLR
Nature of the test: co-IP.
Take “Pals1-associated tight junction protein (from UniProt E2QYC9 1-1828)”: the binding entry was “binds”.

Regarding Par6 (from UniProt A0A8I3PSX6 1-370), the binding result is listed as “binds”. In the case of B1 it was “no binding”.

B2: the binding entry is “binds”. In the case of B3, the binding result is “no binding”.
